Assay results taken from publication PMC7819943, “Rice protein-binding microarrays: a tool to detect cis-acting elements near promoter regions in rice”.
The other results are listed elsewhere or left out.

The sequences below were run against T1, OsSMF1 (Oryza sativa, UniProt Q6ZLB0 1-436) (assay: protein-binding microarray (RPBM); PBS, 2% BSA, 51.3 ng/ul salmon testes DNA, 50 uM zinc acetate, 200 nM TF, 25 C, 1 h; high values mean tight binding). Conditions: protein: recombinant; tags: N-terminal polyhistidine and DsRed monomer fusion (pET32a); chain copies: 2; label: CyDye5-dUTP incorporated in the synthesized complementary strand; 3' TTTTT single-stranded linker to array surface; dsDNA, one strand shown.
T1 sequence: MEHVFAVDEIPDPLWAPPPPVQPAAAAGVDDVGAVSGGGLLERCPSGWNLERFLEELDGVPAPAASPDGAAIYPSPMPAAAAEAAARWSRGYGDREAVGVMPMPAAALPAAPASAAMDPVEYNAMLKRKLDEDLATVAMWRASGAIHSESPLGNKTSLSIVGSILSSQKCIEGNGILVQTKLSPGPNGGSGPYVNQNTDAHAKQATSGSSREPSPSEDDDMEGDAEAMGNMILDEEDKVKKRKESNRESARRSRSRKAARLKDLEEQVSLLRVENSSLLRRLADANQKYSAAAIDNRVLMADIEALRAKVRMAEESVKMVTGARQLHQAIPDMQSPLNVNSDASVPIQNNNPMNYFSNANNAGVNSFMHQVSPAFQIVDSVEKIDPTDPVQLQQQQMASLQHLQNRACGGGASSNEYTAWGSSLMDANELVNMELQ
Procedure, shortened: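 Binding signal is defined as the fluorescence intensity of each feature in arbitrary units, read on an Axon 4000B scanner. Transcription factors with N-terminal polyhistidine and DsRed fusions came from E. coli BL21-CodonPlus and were purified on Ni–NTA. They were incubated at 200 nM for 1 h at 25 °C on a custom Agilent array that had been made double-stranded with Cy5-dUTP, with 50 µM zinc acetate present, and the array was washed.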
In the case of “ATCCATCTTCGTGACAGCTCCGAGCTTTCTCCTGGTTATTCGGAGTCACCTAGTGCAG”, the binding signal is reported as 3510 fluorescence intensity (a.u.). For “AGAACGTGTGTGTGCCTCTCGAGTCACGAGCTGCTGTACACGGAGTCACCTAGTGCAG”, the binding signal was 3730 fluorescence intensity (a.u.). With “CGTGGCACTTAGCGATGAGTGCTGTCGTCAGTAGCAATCCCGGAGTCACCTAGTGCAG” the binding signal was 4620 fluorescence intensity (a.u.). “ATCGGGCCGTCCATCCATCTCGCGTCACACGGTCCACCACCGGAGTCACCTAGTGCAG” was tested, and the binding signal was 4050 fluorescence intensity (a.u.). In the case of “TTTATAATAATTGTAAGTTGTCAGTCCACGTAATTGGAGCCGGAGTCACCTAGTGCAG”, the binding signal is reported as 7460 fluorescence intensity (a.u.). With “GTTCTTTTCGCTATGATGACGCCAATGGAGCTACGAAGTACGGAGTCACCTAGTGCAG” the binding signal was 3750 fluorescence intensity (a.u.). In the case of “CTACACGGGTCCGGTCACCGCGTCTCGTCGTCGTGGCTTGCGGAGTCACCTAGTGCAG”, the binding signal is reported as 4170 fluorescence intensity (a.u.). For “CAAGACAGAATGGAAAAGACGACACATCACCTCTTTTGCACGGAGTCACCTAGTGCAG”, the binding signal was 5560 fluorescence intensity (a.u.). “CACCCACTGACACGTGGTCCCCACCCACCCCACCTGTCCCCGGAGTCACCTAGTGCAG” was tested, and the binding signal was 12900 fluorescence intensity (a.u.). For “TTTCTAGCATATGAATGTGGGCAATGCTAGAAAGTCTTATCGGAGTCACCTAGTGCAG”, the binding signal was 3980 fluorescence intensity (a.u.). In the case of “AACTTGCTCGAACTCTCTTTCTCACGTGTGTTCATGGGCCCGGAGTCACCTAGTGCAG”, the binding signal is reported as 3840 fluorescence intensity (a.u.). For “CTCATTTGGATCGCACAGAAAGAATGGCTGAGAGCCAGACCGGAGTCACCTAGTGCAG”, the binding signal was 28300 fluorescence intensity (a.u.). For “ATGCACAAATGCACGATGCACAACCCTCCCGGTCTCTCCCCGGAGTCACCTAGTGCAG”, the binding signal was 3220 fluorescence intensity (a.u.). In the case of “TGTGGGTTGGAGGGAGGAGGGGATTGAAGGGTTGTTAATTCGGAGTCACCTAGTGCAG”, the binding signal is reported as 4650 fluorescence intensity (a.u.). In the case of “GTCTTATAATATGAAACGGATGAAGTATTAGATAGCCGAACGGAGTCACCTAGTGCAG”, the binding signal is reported as 3300 fluorescence intensity (a.u.). With “GACCCTTCGCGAGTTCGATGCTCCCTCGCTGACAACATGCCGGAGTCACCTAGTGCAG” the binding signal was 4000 fluorescence intensity (a.u.). With “TCAGTTGGGAGTGTGAGCTGATTCATCAGCAACTCGTAGCCGGAGTCACCTAGTGCAG” the binding signal was 4250 fluorescence intensity (a.u.). “GGGCGACCCGTCACGCGTGCGTGCGTGCGTGCGTGCTCGCCGGAGTCACCTAGTGCAG” was tested, and the binding signal was 6010 fluorescence intensity (a.u.). “ACCTGTCATGCTGACGTAGCACCTGACGAGGCCTGGCCCACGGAGTCACCTAGTGCAG” was tested, and the binding signal was 26500 fluorescence intensity (a.u.). For “CGCCGTCACGCACCCACGCACGCACGCACGCACGCATATACGGAGTCACCTAGTGCAG”, the binding signal was 3640 fluorescence intensity (a.u.). In the case of “CAAAAGGGAACCAGCTGTCGCGATACAGCAGGTGGGAGGACGGAGTCACCTAGTGCAG”, the binding signal is reported as 12200 fluorescence intensity (a.u.). In the case of “ACTGACGTGACGTGTCGCTTACGTGGCTAATTTAACTATGCGGAGTCACCTAGTGCAG”, the binding signal is reported as 34000 fluorescence intensity (a.u.). “AAACTCTCACTCGCTCACTCACACCTCACACGCTGCTGCTCGGAGTCACCTAGTGCAG” was tested, and the binding signal was 3730 fluorescence intensity (a.u.). With “AAGAAAATCTCCTGTCTCAGTCTCCTCCGCTCCTTGCGCCCGGAGTCACCTAGTGCAG” the binding signal was 54400 fluorescence intensity (a.u.). “CGCCCCTGCGCCGCCTCCTCCGCGTCGACGCCCTCGTCCTCGGAGTCACCTAGTGCAG” was tested, and the binding signal was 3140 fluorescence intensity (a.u.). With “GCTACACTTGTCCTCATTTACCAACACACAAGCTCTCCCTCGGAGTCACCTAGTGCAG” the binding signal was 3200 fluorescence intensity (a.u.). In the case of “GCTTGGAGTGTAGAGAGTGGTATGATTCGAAAATTAGCTGCGGAGTCACCTAGTGCAG”, the binding signal is reported as 3150 fluorescence intensity (a.u.). For “TGGCAACGTACGTCAACGGTCGTCCGTGGTATTCTTATTACGGAGTCACCTAGTGCAG”, the binding signal was 3430 fluorescence intensity (a.u.). “GCCGTGGCGCGTCGCCGGCCGACCTCCCGGCCTGGCGGCCCGGAGTCACCTAGTGCAG” was tested, and the binding signal was 5160 fluorescence intensity (a.u.). For “CACTGGTGATGCAGTGTCGGCGGATGATAACAAACGTGTGCGGAGTCACCTAGTGCAG”, the binding signal was 3240 fluorescence intensity (a.u.). In the case of “AAGAGGGAGGGGAGGGTTCGCGAACCAGTAGAAAACGGCTCGGAGTCACCTAGTGCAG”, the binding signal is reported as 3390 fluorescence intensity (a.u.). “CATCTAATTGCCACATAAGCGCCACGTCAACGACACGTTGCGGAGTCACCTAGTGCAG” was tested, and the binding signal was 41300 fluorescence intensity (a.u.). “ATCACCACTTCGTCCAGGGCCTACGCACCAAATCACAATCCGGAGTCACCTAGTGCAG” was tested, and the binding signal was 3330 fluorescence intensity (a.u.). With “TAGGAATAGGATTGGGGTGCCAGCGCGGCAGCAGCAAACCCGGAGTCACCTAGTGCAG” the binding signal was 5080 fluorescence intensity (a.u.). With “TCTTCACCACTTCTTGCATGATCATATGAACGCTGAGGTGCGGAGTCACCTAGTGCAG” the binding signal was 6550 fluorescence intensity (a.u.). In the case of “CGGCCGCCACGACGACCCCGCGTCACCCTAGGGCATAGCCCGGAGTCACCTAGTGCAG”, the binding signal is reported as 4730 fluorescence intensity (a.u.). In the case of “TGCTCCGGTGGGTGTCCTATTTATAGAAATAAATTTCATACGGAGTCACCTAGTGCAG”, the binding signal is reported as 38600 fluorescence intensity (a.u.). With “ACAAAGTTCAGATCTGTGCAAGGCAAGATGATATTGAAGTCGGAGTCACCTAGTGCAG” the binding signal was 26800 fluorescence intensity (a.u.). In the case of “AAAAGTTTAGACAAGAAAACACGTAACAAGTTGGTTTGCACGGAGTCACCTAGTGCAG”, the binding signal is reported as 4100 fluorescence intensity (a.u.). With “CGGGTTGGTAACTCTTGCCTCCAGCATAGAAAACGGAGCGCGGAGTCACCTAGTGCAG” the binding signal was 3930 fluorescence intensity (a.u.). In the case of “CTTCCATTTCCACGTGCTCATTCACGCCCGCATCATAAACCGGAGTCACCTAGTGCAG”, the binding signal is reported as 3430 fluorescence intensity (a.u.). “TGTTTACAGTTGTCTGATTCAGGGTCAATGTAATCGTCGTCGGAGTCACCTAGTGCAG” was tested, and the binding signal was 3660 fluorescence intensity (a.u.).
